Reference: PubChem BioAssay AID1259405 (NCATS, 2018)
Screen: 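Silenced genes that increase secreted GFP made by CHO cells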 (primary screen). Cell system: Chinese hamster CHO-K1 ovary cells with stable secreted eGFP expression. Reagents: single siRNA against mouse genes, 0.8 pmol siRNA per well (2 µl of 400 nM stock). Duration: 3 days. Measured: 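Per-well intracellular GFP measured by laser scanning cytometry, plus viability from ATP luminescence, each relative to plate median of non-targeting control wells, in %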. Scale: GFP, % of control: higher = more GFP per well, higher productivity; viability (ATP), % of control: higher = more viable cells (more ATP). Call rule: 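Called active when intracellular GFP, relative to negative control, is at or above 120%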.
The whole screen tested about 50,000 reagents; this is an unselected part. About 4,000 of them (8%) were called active. 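Mouse siRNA library applied to hamster cells; one well for each siRNA.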 The numbers tell different reagents against one gene apart.

Which result is listed for Tsr3 (TSR3 20S rRNA accumulation) #1?
GFP, % of control: 98.3; viability (ATP), % of control: 113; activity call: inactive

For Tsr3 (TSR3 20S rRNA accumulation) #2, how do the results read?
GFP, % of control: 57.9; viability (ATP), % of control: 104; activity call: inactive

For Tsr3 (TSR3 20S rRNA accumulation) #3, what does the deposit list?
GFP, % of control: 136; viability (ATP), % of control: 121; activity call: active

What is on record for Ypel1 (yippee like 1) #1?
GFP, % of control: 57.1; viability (ATP), % of control: 71.8; activity call: inactive

What did the screen give for Ypel1 (yippee like 1) #2?
GFP, % of control: 52.7; viability (ATP), % of control: 51.5; activity call: inactive

With Ypel1 (yippee like 1) #3, how do the results read?
GFP, % of control: 98.5; viability (ATP), % of control: 89; activity call: inactive

For Egr1 (early growth response 1) #1, what was measured?
GFP, % of control: 73.8; viability (ATP), % of control: 72.5; activity call: inactive

How did the screen score Egr1 (early growth response 1) #2?
GFP, % of control: 95.5; viability (ATP), % of control: 92.7; activity call: inactive

What did the screen give for Cops5 (COP9 signalosome subunit 5) #1?
GFP, % of control: 71.5; viability (ATP), % of control: 67.8; activity call: inactive

With Cops5 (COP9 signalosome subunit 5) #2, how do the results read?
GFP, % of control: 83; viability (ATP), % of control: 82; activity call: inactive

Which result is listed for Rnf208 (ring finger protein 208) #1?
GFP, % of control: 87.1; viability (ATP), % of control: 94.5; activity call: inactive

How did the screen score Rnf208 (ring finger protein 208) #2?
GFP, % of control: 51; viability (ATP), % of control: 48.5; activity call: inactive

What did the screen give for Rnf208 (ring finger protein 208) #3?
GFP, % of control: 81.2; viability (ATP), % of control: 62.2; activity call: inactive

With Defb5 (defensin beta 5) #1, how do the results read?
GFP, % of control: 108; viability (ATP), % of control: 75.9; activity call: inactive

How did the screen score Defb5 (defensin beta 5) #2?
GFP, % of control: 94.3; viability (ATP), % of control: 88.6; activity call: inactive

What is on record for Defb5 (defensin beta 5) #3?
GFP, % of control: 95.4; viability (ATP), % of control: 50.9; activity call: inactive

3 entries from above, showing only “viability (ATP), % of control”:
Ypel1 (yippee like 1) #1	71.8
Ypel1 (yippee like 1) #2	51.5
Ypel1 (yippee like 1) #3	89
